The supplement of paper PMC10849652
The other results are listed elsewhere or left out.

Chains of the proteins cited; added tags and fusions are not shown. Lines headed by an entry give the natural chain unless they say otherwise; changes in a name come on top.
UniProt Q9UGM6: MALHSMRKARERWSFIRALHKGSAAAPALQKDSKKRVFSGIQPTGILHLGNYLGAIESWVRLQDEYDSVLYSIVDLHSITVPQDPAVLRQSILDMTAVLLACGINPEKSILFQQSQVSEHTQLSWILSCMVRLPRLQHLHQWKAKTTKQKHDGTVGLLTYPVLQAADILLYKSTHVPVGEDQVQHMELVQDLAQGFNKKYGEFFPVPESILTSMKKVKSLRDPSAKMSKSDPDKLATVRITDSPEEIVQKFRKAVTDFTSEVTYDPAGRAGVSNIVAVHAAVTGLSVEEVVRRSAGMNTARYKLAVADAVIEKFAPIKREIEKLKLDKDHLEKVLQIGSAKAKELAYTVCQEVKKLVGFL
UniProt Q9Y4P8: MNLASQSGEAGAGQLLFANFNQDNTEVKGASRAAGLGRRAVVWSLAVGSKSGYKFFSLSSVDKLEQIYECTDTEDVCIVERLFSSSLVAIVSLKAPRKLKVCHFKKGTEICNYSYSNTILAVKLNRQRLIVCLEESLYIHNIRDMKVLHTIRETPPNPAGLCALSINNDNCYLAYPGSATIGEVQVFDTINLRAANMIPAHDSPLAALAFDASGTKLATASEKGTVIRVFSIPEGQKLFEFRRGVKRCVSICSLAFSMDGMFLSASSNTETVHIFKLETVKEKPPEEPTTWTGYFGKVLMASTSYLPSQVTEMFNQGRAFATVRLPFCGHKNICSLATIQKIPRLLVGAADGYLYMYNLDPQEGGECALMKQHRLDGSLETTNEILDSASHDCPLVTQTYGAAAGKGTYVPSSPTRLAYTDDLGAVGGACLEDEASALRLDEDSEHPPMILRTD
UniProt O94967: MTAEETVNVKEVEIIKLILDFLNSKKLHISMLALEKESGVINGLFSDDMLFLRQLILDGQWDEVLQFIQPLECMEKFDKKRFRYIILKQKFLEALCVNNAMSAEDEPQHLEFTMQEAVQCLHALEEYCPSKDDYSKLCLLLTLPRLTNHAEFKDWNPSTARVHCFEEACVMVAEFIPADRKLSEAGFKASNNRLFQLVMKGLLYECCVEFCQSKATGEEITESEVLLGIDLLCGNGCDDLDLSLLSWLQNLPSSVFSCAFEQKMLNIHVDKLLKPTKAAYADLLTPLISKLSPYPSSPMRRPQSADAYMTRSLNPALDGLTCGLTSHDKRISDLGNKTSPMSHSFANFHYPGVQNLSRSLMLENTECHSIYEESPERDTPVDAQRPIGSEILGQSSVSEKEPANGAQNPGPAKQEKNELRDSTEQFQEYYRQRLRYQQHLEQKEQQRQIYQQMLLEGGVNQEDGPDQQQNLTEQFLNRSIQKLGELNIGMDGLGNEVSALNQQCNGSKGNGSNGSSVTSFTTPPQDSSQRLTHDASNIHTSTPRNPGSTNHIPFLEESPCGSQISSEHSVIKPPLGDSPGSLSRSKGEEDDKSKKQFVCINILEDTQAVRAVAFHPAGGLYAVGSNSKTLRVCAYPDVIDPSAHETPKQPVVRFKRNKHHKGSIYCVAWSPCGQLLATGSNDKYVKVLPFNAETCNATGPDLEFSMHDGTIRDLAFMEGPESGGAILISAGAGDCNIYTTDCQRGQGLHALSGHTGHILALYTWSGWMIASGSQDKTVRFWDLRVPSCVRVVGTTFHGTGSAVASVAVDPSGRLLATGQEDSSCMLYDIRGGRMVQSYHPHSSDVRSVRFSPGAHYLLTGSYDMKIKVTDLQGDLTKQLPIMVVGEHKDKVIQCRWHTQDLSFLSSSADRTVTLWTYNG
UniProt Q9NP79: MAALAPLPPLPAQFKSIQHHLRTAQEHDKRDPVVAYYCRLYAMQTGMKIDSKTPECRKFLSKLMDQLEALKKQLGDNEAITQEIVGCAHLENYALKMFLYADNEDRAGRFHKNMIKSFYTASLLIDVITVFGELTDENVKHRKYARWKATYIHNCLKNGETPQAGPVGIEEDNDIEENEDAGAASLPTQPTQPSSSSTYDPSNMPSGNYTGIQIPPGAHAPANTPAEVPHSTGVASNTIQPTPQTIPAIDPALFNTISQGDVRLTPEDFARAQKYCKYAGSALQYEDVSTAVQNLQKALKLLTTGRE
UniProt O00258: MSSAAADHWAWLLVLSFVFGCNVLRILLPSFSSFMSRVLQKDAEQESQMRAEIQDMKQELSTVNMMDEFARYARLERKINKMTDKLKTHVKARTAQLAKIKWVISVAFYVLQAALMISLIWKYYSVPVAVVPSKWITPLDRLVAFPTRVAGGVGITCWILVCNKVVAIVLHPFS
UniProt Q99986: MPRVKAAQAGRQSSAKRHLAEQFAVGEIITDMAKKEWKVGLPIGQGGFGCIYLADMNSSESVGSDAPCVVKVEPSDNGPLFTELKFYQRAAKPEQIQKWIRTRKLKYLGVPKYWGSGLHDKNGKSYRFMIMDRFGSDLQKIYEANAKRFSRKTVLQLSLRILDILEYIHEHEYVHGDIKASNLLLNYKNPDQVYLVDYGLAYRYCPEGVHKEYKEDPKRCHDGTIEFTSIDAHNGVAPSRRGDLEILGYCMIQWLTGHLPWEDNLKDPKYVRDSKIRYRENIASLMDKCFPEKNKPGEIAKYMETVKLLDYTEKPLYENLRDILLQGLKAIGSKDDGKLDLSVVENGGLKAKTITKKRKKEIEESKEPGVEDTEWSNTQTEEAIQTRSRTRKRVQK
UniProt Q9BV38: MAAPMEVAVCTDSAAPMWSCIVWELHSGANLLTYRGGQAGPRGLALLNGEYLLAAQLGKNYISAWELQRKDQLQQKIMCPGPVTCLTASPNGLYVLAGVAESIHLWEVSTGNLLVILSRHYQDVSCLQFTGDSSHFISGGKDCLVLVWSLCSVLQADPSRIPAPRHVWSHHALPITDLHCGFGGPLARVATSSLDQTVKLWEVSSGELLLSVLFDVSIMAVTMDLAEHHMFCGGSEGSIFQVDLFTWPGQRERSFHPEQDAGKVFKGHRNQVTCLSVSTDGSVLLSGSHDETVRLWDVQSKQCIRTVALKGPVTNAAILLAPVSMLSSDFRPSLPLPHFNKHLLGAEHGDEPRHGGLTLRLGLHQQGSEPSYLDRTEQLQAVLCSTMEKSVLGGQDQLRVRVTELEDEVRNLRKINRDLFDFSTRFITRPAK
UniProt Q9H267: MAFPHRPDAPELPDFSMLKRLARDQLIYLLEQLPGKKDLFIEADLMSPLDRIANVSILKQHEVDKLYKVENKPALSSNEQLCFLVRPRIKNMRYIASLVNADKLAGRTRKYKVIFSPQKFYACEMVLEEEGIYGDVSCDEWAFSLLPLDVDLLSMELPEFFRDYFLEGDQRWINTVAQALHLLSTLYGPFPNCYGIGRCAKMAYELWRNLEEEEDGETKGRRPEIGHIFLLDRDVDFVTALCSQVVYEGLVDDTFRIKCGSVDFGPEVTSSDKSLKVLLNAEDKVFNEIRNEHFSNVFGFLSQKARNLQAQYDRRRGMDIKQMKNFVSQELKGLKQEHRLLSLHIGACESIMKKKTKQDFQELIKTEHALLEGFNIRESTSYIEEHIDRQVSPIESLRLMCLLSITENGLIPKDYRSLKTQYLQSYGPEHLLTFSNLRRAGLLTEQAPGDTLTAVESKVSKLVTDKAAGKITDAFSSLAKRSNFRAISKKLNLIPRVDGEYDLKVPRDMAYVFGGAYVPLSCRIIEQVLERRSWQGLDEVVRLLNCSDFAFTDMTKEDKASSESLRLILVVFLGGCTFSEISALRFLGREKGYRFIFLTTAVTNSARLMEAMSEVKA
UniProt Q8IWB7: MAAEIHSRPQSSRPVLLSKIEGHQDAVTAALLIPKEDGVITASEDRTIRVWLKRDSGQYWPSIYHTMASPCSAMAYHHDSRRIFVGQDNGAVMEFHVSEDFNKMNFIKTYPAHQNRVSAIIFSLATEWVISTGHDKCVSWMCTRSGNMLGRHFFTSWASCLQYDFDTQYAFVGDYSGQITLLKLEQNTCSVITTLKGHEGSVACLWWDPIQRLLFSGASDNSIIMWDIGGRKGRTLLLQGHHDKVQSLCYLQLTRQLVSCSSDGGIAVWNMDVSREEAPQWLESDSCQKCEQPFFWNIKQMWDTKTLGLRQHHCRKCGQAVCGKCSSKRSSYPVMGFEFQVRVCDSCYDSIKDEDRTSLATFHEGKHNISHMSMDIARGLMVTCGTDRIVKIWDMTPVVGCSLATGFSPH
UniProt Q8N3P4: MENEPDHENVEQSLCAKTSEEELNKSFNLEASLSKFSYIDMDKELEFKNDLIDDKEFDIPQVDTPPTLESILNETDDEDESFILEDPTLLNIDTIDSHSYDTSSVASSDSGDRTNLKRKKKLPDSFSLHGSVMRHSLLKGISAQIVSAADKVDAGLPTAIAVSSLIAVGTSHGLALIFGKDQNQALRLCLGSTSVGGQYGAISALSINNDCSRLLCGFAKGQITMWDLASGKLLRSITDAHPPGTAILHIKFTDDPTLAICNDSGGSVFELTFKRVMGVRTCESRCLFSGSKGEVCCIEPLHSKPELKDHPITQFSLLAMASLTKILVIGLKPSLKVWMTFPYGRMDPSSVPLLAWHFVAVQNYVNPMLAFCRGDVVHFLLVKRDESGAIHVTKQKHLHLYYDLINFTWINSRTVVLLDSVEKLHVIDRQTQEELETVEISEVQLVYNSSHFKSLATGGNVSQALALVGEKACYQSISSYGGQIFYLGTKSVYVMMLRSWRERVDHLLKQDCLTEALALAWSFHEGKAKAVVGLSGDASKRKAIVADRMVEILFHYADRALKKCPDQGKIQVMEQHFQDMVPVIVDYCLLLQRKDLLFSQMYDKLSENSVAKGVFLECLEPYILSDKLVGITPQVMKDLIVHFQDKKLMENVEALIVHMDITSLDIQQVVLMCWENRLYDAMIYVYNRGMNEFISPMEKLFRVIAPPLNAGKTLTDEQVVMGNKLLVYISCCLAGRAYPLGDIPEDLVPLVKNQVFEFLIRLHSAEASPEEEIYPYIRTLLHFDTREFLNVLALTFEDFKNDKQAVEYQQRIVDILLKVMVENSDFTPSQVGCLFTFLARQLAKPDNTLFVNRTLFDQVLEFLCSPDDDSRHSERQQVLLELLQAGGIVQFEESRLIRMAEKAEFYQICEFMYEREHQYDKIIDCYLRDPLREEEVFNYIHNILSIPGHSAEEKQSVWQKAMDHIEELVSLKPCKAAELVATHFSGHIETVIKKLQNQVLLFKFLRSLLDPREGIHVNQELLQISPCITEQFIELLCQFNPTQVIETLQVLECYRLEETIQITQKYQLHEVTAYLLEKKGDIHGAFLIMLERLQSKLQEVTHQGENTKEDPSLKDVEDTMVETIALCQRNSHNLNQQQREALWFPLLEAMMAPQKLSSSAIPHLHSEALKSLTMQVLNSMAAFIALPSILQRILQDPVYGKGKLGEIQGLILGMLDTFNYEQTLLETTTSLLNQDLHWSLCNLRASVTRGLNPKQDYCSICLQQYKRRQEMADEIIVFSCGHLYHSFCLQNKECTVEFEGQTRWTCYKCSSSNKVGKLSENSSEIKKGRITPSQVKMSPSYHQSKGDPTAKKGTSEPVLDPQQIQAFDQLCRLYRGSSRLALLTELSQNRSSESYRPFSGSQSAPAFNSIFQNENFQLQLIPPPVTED
UniProt A4D1P6: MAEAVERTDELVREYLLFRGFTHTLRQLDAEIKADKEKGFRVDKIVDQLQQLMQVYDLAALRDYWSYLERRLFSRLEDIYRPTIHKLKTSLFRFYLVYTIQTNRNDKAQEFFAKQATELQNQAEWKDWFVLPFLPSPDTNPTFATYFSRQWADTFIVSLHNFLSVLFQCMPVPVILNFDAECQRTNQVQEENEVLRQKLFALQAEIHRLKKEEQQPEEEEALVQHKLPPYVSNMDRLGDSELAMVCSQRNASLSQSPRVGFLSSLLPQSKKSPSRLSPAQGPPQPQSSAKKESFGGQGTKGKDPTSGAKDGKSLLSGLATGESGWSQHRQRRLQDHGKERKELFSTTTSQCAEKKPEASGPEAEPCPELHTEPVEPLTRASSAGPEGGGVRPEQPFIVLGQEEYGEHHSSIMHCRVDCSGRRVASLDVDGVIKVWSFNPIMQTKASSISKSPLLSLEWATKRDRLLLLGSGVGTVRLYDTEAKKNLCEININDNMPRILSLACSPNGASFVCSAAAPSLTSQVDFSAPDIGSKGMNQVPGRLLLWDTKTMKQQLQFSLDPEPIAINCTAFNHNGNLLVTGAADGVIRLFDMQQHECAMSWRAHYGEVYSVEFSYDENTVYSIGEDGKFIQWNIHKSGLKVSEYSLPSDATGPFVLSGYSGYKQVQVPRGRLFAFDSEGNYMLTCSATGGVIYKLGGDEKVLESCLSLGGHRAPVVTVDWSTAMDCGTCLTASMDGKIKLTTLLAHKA

What was measured:
Test in all cases: log2 fold change, soluble protein after heating vs DMSO (PISA); higher = thermal stabilisation; K562 lysate, 10 uM; active = over 0.2 and 3.5 SD of the protein, either way, in both replicates (recomputed)
alvocidib = compound: CN1CC[C@H](c2c(O)cc(O)c3c(=O)cc(-c4ccccc4Cl)oc23)[C@H](O)C1 [alvocidib]
Method in brief: (§1)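 Log-two fold change in thermal stability relative to solvent controls is reported from duplicates. For each sample, crude K562 extract from dounce-homogenised pellets in PBS pH 7.4 with 1 mM MgCl2, at 1 mg/mL protein, was treated with 10 μM compound for 30 min. Aliquots heated for 3 min across 48°C-58°C were pooled, brought to 0.5% NP-40 at 4°C and cleared at 21,000xg for 90 min. The supernatant was quantified by TMTpro 16plex LC-MS/MS with channel sums equalised.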

Tubastatin A = compound: CN1CCc2c(c3ccccc3n2Cc2ccc(C(=O)NO)cc2)C1 [Tubastatin A]
Method in brief: as §1

[1] = compound: CNC(=O)C1=CC=CC=C1NC2=NC(=NC=C2Cl)NC3=C(C=C(C=C3)N4CCOCC4)OC
Method in brief: as §1

defactinib = compound: CNC(=O)c1ccc(Nc2ncc(C(F)(F)F)c(NCc3nccnc3N(C)S(C)(=O)=O)n2)cc1 [defactinib]
Method in brief: as §1

[2] = compound: CNc1nc(-c2ccc3c(N)n[nH]c3c2)cc(N2C[C@@H](C(=O)NC3CCCCC3)CC[C@H]2C)n1
Method in brief: as §1

encorafenib = compound: COC(=O)N[C@@H](C)CNc1nccc(-c2cn(C(C)C)nc2-c2cc(Cl)cc(NS(C)(=O)=O)c2F)n1 [encorafenib]
Method in brief: as §1

[3] = compound: COC(=O)[C@H](CCSC)NC(=O)C1=C(C=C(C=C1)NC[C@H](CS)N)C2=CC=CC=C2
Method in brief: as §1

alisertib = compound: COc1cc(Nc2ncc3c(n2)-c2ccc(Cl)cc2C(c2c(F)cccc2OC)=NC3)ccc1C(=O)O [alisertib]
Method in brief: as §1

[4] = compound: COc1cc2nc(-c3cc(F)ccc3O)nc(N[C@@H]3CNC[C@H]3C(C)(C)O)c2cc1OC
Method in brief: as §1

gefitinib = compound: COc1cc2ncnc(Nc3ccc(F)c(Cl)c3)c2cc1OCCCN1CCOCC1 [gefitinib]
Method in brief: as §1

Measured: log2 fold change

VPS37C (UniProt A5D8V6)
inactive: alvocidib 0.026 | Tubastatin A 0.064 | [1] -0.005 | defactinib 0.022 | [2] 0.033 | encorafenib 0.089 | [3] -0.101 | alisertib 0.057 | [4] -0.009 | gefitinib -0.009

WRNIP1 (UniProt Q96S55)
active: [3] 0.222
inactive: alvocidib 0.005 | Tubastatin A -0.229 | [1] 0.01 | defactinib 0.01 | [2] -0.044 | encorafenib 0.024 | alisertib -0.022 | [4] -0.014 | gefitinib 0.033

WARS2 (UniProt Q9UGM6)
inactive: alvocidib -0.033 | Tubastatin A -0.001 | [1] 0.046 | defactinib 0.034 | [2] 0.055 | encorafenib -0.001 | [3] 0.029 | alisertib 0.054 | [4] -0.042 | gefitinib 0.069

WDR82 (UniProt Q6UXN9)
inactive: alvocidib 0.014 | Tubastatin A 0.011 | [1] 0.019 | defactinib -0.005 | [2] -0.025 | encorafenib -0.017 | [3] 0.008 | alisertib 0.002 | [4] 0.017 | gefitinib -0.043

VPS45 (UniProt Q9NRW7)
inactive: alvocidib 0.002 | Tubastatin A -0.001 | [1] 0.001 | defactinib -0.012 | [2] -0.031 | encorafenib 0.033 | [3] 0.01 | alisertib -0.018 | [4] -0.011 | gefitinib 0.002

WIPI2 isoform 6 (UniProt Q9Y4P8)
inactive: alvocidib -0.015

WDR47 (UniProt O94967)
inactive: alvocidib 0.054 | Tubastatin A -0.012 | [1] 0.085 | defactinib 0.019 | [2] -0.047 | encorafenib -0.035 | [3] -0.002 | alisertib -0.058 | [4] -0.039 | gefitinib -0.002

VPS35L (UniProt Q7Z3J2)
inactive: alvocidib 0 | Tubastatin A -0.083 | [1] 0.015 | defactinib 0.036 | [2] -0.013 | encorafenib 0.014 | [3] 0.006 | alisertib -0.034 | [4] -0.023 | gefitinib -0.076

XPNPEP1 isoform 3 (UniProt Q9NQW7)
active: [3] 0.613
inactive: alvocidib -0.018 | Tubastatin A 0.011 | [1] 0.029 | defactinib -0.001 | [2] -0.045 | encorafenib 0.001 | alisertib -0.002 | [4] 0.002 | gefitinib 0.002

VPS18 (UniProt Q9P253)
inactive: alvocidib -0.016 | Tubastatin A -0.106 | [1] 0.011 | defactinib -0.057 | [2] -0.008 | encorafenib 0.019 | [3] -0.125 | alisertib 0.005 | [4] -0.006 | gefitinib 0.006

VKORC1L1, A0A3B3ISV4
inactive: alvocidib -0.032 | Tubastatin A 0.026 | [1] 0.015 | defactinib 0.036 | [2] 0.097 | encorafenib 0.026 | [3] 0.04 | alisertib 0.041 | [4] 0.011 | gefitinib -0.077

VPS29 isoform 2 (UniProt Q9UBQ0)
inactive: alvocidib 0.008 | Tubastatin A 0.033 | [1] -0.037 | defactinib -0.023 | [2] -0.001 | encorafenib 0.003 | [3] 0.003 | alisertib -0.007 | [4] 0.009 | gefitinib -0.027

VPS35 (UniProt Q96QK1)
inactive: alvocidib 0.01 | Tubastatin A -0.004 | [1] -0.022 | defactinib -0.022 | [2] 0.009 | encorafenib -0.014 | [3] -0.002 | alisertib -0.005 | [4] 0.006 | gefitinib -0.043

VTA1 (UniProt Q9NP79)
inactive: alvocidib 0.006 | Tubastatin A -0.006 | [1] 0.031 | defactinib -0.012 | [2] -0.041 | encorafenib 0.015 | [3] -0.006 | alisertib 0.033 | [4] 0.007 | gefitinib -0.018

WASHC3 (UniProt Q9Y3C0)
inactive: alvocidib -0.025 | Tubastatin A 0.036 | [1] 0.015 | defactinib 0.002 | [2] 0.059 | encorafenib 0.007 | [3] -0.019 | alisertib 0.022 | [4] -0.028 | gefitinib -0.042

WASL (UniProt O00401)
inactive: alvocidib 0.096 | Tubastatin A 0.103 | [1] -0.021 | defactinib -0.079 | [2] -0.025 | encorafenib 0.005 | [3] -0.054 | alisertib -0.086 | [4] -0.029 | gefitinib 0.027

WDR5 (UniProt P61964)
inactive: alvocidib -0.098 | Tubastatin A 0.048 | [1] 0.065 | defactinib 0.028 | [2] 0.056 | encorafenib 0.023 | [3] -0.023 | alisertib 0.031 | [4] -0.004 | gefitinib -0.026

XP32 (UniProt Q5T750)
inactive: alvocidib 0.183

WRB (UniProt O00258)
inactive: alvocidib -0.022 | Tubastatin A 0.114 | [1] 0.029 | defactinib -0.003 | [2] 0.044 | encorafenib -0.067 | [3] 0.027 | alisertib -0.028 | [4] 0.022 | gefitinib 0.061

VRK1 (UniProt Q99986)
inactive: Tubastatin A -0.096 | [1] 0.008 | defactinib -0.067 | [2] 0.017 | encorafenib -0.027 | [3] 0.047 | alisertib -0.004 | [4] -0.007 | gefitinib -0.026
active: alvocidib 0.385

WRN (UniProt Q14191)
inactive: alvocidib -0.029 | Tubastatin A -0.071 | [1] -0.007 | defactinib 0.023 | [2] -0.025 | encorafenib 0.016 | [3] -0.013 | alisertib -0.037 | [4] 0 | gefitinib 0.047

VPS26C (UniProt O14972)
inactive: alvocidib -0.129 | Tubastatin A -0.042 | [1] 0.014 | defactinib 0.07 | [2] 0.007 | encorafenib -0.041 | [3] -0.077 | alisertib -0.093 | [4] -0.024 | gefitinib 0.006

WDR61 (UniProt Q9GZS3)
inactive: alvocidib -0.02 | Tubastatin A -0.083 | [1] 0.009 | defactinib -0.03 | [2] -0.026 | encorafenib -0.007 | [3] -0.001 | alisertib 0.004 | [4] 0.002 | gefitinib -0.017

Copied from the results shown (2 entries):
VPS29 isoform 2 (UniProt Q9UBQ0)
inactive: alvocidib 0.008 | Tubastatin A 0.033 | [1] -0.037 | defactinib -0.023 | [2] -0.001 | encorafenib 0.003 | [3] 0.003 | alisertib -0.007 | [4] 0.009 | gefitinib -0.027

VPS35 (UniProt Q96QK1)
inactive: alvocidib 0.01 | Tubastatin A -0.004 | [1] -0.022 | defactinib -0.022 | [2] 0.009 | encorafenib -0.014 | [3] -0.002 | alisertib -0.005 | [4] 0.006 | gefitinib -0.043

Later entries.

WDR18 (UniProt Q9BV38)
inactive: alvocidib -0.014 | Tubastatin A -0.038 | [1] -0.001 | defactinib 0.004 | [2] 0.046 | encorafenib 0.09 | [3] -0.192 | alisertib -0.005 | [4] -0.033 | gefitinib 0.012

VPS33B (UniProt Q9H267)
inactive: alvocidib 0.003 | Tubastatin A -0.073 | [1] -0.026 | defactinib 0.002 | [2] -0.036 | encorafenib 0.028 | [3] 0.014 | alisertib -0.012 | [4] 0.003 | gefitinib 0.027

WDFY1 (UniProt Q8IWB7)
inactive: alvocidib -0.028 | Tubastatin A 0.008 | [1] -0.028 | defactinib 0.034 | [2] -0.047 | encorafenib 0.027 | [3] -0.068 | alisertib -0.025 | [4] -0.008 | gefitinib 0.002

WDR46 (UniProt O15213)
inactive: alvocidib -0.066 | Tubastatin A -0.047 | [1] -0.041 | defactinib 0.006 | [2] 0.052 | encorafenib -0.015 | [3] -0.026 | alisertib 0.101 | [4] 0.053 | gefitinib 0.136

VPS8 (UniProt Q8N3P4)
inactive: alvocidib 0 | Tubastatin A -0.123 | [1] 0.001 | defactinib -0.001 | [2] 0.066 | encorafenib 0.023 | [3] -0.108 | alisertib 0.02 | [4] 0.006 | gefitinib -0.037

WWP2 (UniProt O00308)
inactive: alvocidib -0.037 | Tubastatin A -0.09 | [1] 0.001 | defactinib -0.177 | [2] 0.095 | encorafenib 0.021 | [3] 0.001 | alisertib 0.008 | [4] -0.001 | gefitinib 0.01

WDR20 isoform 7 (UniProt Q8TBZ3)
inactive: alvocidib -0.041 | Tubastatin A -0.035 | [1] 0.02 | defactinib -0.049 | [2] -0.13 | encorafenib 0.078 | [3] -0.114 | alisertib 0.175 | [4] -0.002 | gefitinib -0.149

WDR91 (UniProt A4D1P6)
inactive: alvocidib -0.018 | Tubastatin A -0.097 | [1] 0.017 | defactinib -0.003 | [2] -0.056 | encorafenib 0.026 | [3] 0.1 | alisertib 0.013 | [4] -0.007 | gefitinib -0.004
